Earlier results as cited in patent publication US20130084272A1, “COMPOSITIONS, KITS AND METHODS FOR NUTRITIONAL SUPPLEMENTATION WITH TWELVE CARBON CHAIN FATTY ACIDS AND TWELVE CARBON CHAIN ACYLGLYCEROLS” (priority 2011, published 2013).
For at least one compound, name, drawing or mass did not settle the structure.

Conditions: hyperlipidemic men; Mori et al. 1999; cited from earlier work

In the case of CC/C=C\C/C=C\C/C=C\C/C=C\C/C=C\C/C=C\CCC(=O)O [docosahexaenoic acid], the “Effect on ambulatory blood pressure and heart rate” value is listed as “reduce”.

In the case of CC/C=C\C/C=C\C/C=C\C/C=C\C/C=C\CCCC(=O)O [eicosapentaenoic acid], the “Effect on ambulatory blood pressure and heart rate” value is given as “not”.
